# Results from PubChem BioAssay AID1487 (National Center for Advancing Translational Sciences (NCATS), 2009).
# Some of the results follow. Further columns of the screen follow, without active or inactive calls. Most of these compounds were active or inconclusive in the main read-out, so they are no random draw. Potencies come from curve fits of mixed quality, noted in brackets.
# Assay: qHTS Assay for Modulators of Lamin A Splicing
# Conditions: HeLa LMNA splicing GFP/RFP minigene ratio, 48 h
# Method in brief: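 Read-out is the ratio of GFP to DsRed2 object intensity, acquired by 488 nm laser-scanning cytometry on HeLa lamin A-EGFP minigene reporter cells. Compound incubation 48 hrs at 37 °C in Opti-MEM with 2% FBS; DMSO 0.5% final.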
# [1] = measured here: GFP splicing reporter channel
# [2] = measured here: RFP viability control channel
Compound,AC50 [1],AC50 [2]
O=C(O)c1ccc2c(=O)n3c(nc2c1)/C(=C/c1ccccc1C(F)(F)F)CCCC3,"0.794 µM [falling, full curve, poor fit]",
CCCCN(C)C(=O)c1cc2cc3cc(OC)ccc3nc2o1,,"0.0178 µM [falling, full curve]"
N#CC1=C(N)C2=CCCC[C@H]2[C@H](c2ccccc2)C1(C#N)C#N,"22.4 µM [rising, single point]","35.5 µM [rising, single point]"
CCc1ccccc1OCC(=O)OCC(=O)c1c(N)n(C)c(=O)n(C)c1=O,"0.00447 µM [rising, full curve, poor fit]",
CCCc1cc(-c2[nH]ncc2-c2ccc3c(c2)OCCCO3)c(O)cc1OC,,"12.6 µM [rising, partial curve]"
C=CCNC1=C2C[C@@H](C)C[C@H](OC)[C@H](O)[C@@H](C)/C=C(\C)[C@H](OC(N)=O)[C@@H](OC)/C=C\C=C(/C)C(=O)NC(=CC1=O)C2=O,"0.00178 µM [falling, full curve, poor fit]","11.2 µM [rising, partial curve]"
O=C(Nc1cccs1)Nc1c(F)c(F)c(F)c(F)c1F,,"25.1 µM [rising, partial curve, poor fit]"
Cc1cc(C)c(Nc2ncccc2C(=O)O)c(C)c1,,"0.00891 µM [falling, full curve, poor fit]"
Cc1ccc(CNC(=O)C(=O)NCC(c2cccnc2)N2CCN(c3ccccc3F)CC2)cc1 (centres undefined),"25.1 µM [falling, partial curve]","25.1 µM [falling, partial curve]"
Cc1ccc2nsnc2c1S(=O)(=O)N1CCCC1C(=O)O (centres undefined),,"5.62 µM [falling, single point]"
O=C(NCC1CCCO1)C(c1ccncc1)N(Cc1cccs1)C(=O)Cn1nnc(-c2ccc(F)cc2)n1 (centres undefined),"2.24 µM [falling, partial curve, poor fit]",
CC12CN3CCN(CC(C3)C1(O)CN1CCOCC1)C2 (centres undefined),,"3.16 µM [falling, partial curve, poor fit]"
O=C(COC(=O)c1n[nH]c2ccccc12)NC(=O)NCc1ccco1,"12.6 µM [rising, partial curve, poor fit]",
COCc1cnc(C)nc1N,,"7.94 µM [rising, partial curve, poor fit]"
CC1=CC(C)(C)Nc2ccc(OC(=O)CN3C(=O)c4ccccc4C3=O)cc21,"31.6 µM [rising, single point]","31.6 µM [rising, single point]"

# 2 entries from above in a different format.
Compound | AC50 [1] | AC50 [2]
CCc1ccccc1OCC(=O)OCC(=O)c1c(N)n(C)c(=O)n(C)c1=O | 0.00447 µM [rising, full curve, poor fit] | 
CCCc1cc(-c2[nH]ncc2-c2ccc3c(c2)OCCCO3)c(O)cc1OC |  | 12.6 µM [rising, partial curve]
